In paper doi:10.1101/2024.08.18.608474:
These are yes or no findings as the source states them, for the method shown. Binding seen in cells or lysates may run through a third protein. Binding calls can cover weak binding; strength is not graded here.

The chains behind the UniProt entries cited, without tags or fusion partners.
UniProt Q03164: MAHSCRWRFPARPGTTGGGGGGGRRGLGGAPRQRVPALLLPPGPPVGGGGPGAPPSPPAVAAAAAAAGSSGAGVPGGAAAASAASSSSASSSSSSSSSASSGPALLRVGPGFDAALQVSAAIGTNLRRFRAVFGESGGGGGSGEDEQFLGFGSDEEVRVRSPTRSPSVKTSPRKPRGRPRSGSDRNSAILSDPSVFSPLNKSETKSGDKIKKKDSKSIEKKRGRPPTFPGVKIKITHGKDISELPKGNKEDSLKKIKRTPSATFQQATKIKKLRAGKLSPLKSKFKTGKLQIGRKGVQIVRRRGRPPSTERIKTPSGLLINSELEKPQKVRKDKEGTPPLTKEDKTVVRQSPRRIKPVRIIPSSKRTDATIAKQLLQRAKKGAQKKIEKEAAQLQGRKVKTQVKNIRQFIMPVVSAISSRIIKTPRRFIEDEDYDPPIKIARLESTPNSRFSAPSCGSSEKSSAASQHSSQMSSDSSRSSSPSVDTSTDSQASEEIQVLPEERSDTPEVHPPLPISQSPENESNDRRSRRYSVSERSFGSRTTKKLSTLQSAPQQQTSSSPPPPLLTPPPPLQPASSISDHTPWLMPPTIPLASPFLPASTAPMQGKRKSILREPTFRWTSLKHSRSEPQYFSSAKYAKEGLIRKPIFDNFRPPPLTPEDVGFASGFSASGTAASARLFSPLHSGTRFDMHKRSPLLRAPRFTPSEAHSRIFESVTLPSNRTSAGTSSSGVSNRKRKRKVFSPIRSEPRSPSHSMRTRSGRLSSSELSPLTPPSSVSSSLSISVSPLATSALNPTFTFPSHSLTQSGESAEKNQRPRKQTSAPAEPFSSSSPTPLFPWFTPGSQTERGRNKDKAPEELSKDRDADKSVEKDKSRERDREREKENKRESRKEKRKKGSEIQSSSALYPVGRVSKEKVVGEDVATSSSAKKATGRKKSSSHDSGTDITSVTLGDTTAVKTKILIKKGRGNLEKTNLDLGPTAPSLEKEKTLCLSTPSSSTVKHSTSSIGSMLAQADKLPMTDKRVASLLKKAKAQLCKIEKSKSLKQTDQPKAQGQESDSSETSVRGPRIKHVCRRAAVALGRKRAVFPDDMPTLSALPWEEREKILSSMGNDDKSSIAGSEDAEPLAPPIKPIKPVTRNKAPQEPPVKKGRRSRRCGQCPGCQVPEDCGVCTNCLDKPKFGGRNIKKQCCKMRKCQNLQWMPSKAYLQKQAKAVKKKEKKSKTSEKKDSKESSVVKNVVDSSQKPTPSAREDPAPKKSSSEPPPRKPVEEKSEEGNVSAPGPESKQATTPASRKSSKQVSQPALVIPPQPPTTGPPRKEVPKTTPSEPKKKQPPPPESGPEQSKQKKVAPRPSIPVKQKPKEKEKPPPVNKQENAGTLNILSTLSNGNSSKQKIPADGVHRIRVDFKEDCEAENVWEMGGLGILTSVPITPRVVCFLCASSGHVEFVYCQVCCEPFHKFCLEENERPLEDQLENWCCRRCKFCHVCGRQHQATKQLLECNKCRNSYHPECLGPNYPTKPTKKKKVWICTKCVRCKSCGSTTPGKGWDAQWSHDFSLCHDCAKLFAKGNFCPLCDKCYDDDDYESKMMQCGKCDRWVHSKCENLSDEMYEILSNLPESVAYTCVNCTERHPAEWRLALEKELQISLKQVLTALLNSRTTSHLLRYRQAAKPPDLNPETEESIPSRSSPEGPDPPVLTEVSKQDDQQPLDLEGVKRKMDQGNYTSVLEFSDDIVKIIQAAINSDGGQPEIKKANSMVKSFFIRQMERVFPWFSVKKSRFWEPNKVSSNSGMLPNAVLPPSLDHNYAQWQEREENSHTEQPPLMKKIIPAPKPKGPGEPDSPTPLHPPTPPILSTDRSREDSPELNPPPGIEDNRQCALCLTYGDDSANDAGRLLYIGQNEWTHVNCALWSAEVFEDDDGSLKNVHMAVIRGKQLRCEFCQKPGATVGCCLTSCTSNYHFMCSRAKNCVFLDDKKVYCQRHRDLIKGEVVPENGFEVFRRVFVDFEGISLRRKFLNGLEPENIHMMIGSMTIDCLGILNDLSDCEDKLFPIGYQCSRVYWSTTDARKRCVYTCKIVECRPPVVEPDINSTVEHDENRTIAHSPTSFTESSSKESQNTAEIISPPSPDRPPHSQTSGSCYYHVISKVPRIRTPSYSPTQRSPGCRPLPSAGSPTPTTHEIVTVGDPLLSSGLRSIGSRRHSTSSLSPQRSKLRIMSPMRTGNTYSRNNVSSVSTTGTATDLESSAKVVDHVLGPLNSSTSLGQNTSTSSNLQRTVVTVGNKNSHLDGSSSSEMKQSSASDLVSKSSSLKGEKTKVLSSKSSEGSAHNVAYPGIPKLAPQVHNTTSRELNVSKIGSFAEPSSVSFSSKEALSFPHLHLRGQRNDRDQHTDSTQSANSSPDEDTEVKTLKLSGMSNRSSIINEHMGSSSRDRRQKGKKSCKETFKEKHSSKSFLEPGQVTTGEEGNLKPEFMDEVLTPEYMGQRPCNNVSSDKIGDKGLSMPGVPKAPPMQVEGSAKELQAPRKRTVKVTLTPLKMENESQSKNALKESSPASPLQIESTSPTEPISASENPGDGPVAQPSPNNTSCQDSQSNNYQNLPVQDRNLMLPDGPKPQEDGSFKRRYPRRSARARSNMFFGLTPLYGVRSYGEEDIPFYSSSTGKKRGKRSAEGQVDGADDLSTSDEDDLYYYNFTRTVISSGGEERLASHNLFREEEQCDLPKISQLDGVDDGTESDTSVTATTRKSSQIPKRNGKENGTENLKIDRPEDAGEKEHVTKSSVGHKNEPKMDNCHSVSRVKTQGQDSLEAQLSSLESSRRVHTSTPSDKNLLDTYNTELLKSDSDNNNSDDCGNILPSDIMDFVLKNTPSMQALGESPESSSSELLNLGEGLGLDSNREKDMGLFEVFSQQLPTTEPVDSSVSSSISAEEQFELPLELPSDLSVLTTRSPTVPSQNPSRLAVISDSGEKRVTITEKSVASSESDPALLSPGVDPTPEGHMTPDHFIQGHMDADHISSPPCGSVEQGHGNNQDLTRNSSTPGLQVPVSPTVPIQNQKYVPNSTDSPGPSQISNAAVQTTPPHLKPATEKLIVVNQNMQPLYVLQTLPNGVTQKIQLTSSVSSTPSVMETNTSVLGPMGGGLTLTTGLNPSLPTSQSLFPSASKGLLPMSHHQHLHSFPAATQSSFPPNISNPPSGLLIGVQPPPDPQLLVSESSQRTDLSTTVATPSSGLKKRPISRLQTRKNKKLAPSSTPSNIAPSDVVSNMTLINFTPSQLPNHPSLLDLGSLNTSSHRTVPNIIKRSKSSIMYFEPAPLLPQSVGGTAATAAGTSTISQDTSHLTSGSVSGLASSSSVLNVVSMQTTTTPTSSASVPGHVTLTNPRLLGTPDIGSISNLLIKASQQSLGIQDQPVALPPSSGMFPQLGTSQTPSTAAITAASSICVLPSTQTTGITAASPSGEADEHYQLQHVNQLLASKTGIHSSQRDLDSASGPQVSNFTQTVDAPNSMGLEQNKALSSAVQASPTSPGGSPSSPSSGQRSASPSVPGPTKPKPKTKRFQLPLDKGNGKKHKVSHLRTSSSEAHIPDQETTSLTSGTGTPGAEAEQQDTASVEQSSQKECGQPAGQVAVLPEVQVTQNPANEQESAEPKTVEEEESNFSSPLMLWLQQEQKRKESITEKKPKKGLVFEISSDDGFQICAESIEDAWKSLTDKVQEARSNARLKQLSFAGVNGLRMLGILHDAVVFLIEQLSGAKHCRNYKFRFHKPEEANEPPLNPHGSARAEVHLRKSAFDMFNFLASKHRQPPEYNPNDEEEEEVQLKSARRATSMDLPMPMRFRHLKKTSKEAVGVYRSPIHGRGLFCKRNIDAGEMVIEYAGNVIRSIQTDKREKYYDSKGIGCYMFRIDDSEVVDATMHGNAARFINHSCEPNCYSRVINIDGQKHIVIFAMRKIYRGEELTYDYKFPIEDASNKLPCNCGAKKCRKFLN

Target: KMT2A (human (endogenous in HEK293T)) (UniProt Q03164)
Experiment: co-IP

binding: binds
Substance: Adam13 (Xenopus laevis adam13.L) (from UniProt O12960)
